From patent US8889733B2, “Artonin I to treat resistant infectious Staphylococcus aureus” (priority 2013, dated 2014)
At least one read-out could not be matched to a standard name with certainty.

How the values were obtained:
EMRSA-17 = experiment: Reversal of Multi-Drug Resistance (MIC/FIC of antibiotics combined with compound 1); type: cell-based, Staphylococcus aureus; conditions: antibiotic alone
Experimental: (§1) Assay Protocol: Protocol of Chung et al, (2001), with slight modifications, was followed. 5×10 MDR S. aureus cells were treated with 20 μg/mL of test compounds and incubated for 20 hours. Control cells were not exposed to any test compound and antibiotic. In 96-well plate, increasing concentration of antibiotics, along with the fixed concentration of test compounds were added. Inoculum of 5×10^5 cells was applied to all wells. The presence or absence of growth in all combination wells were noted visually and by using the dye Alamar blue.
(§2) Fractional inhibitory concentrations were calculated by the above cited formulae. • FIC of Antibiotic a (FICa)=MIC of Antibiotic a in combination/MIC of antibiotic a alone • FIC of Compound b (FICb)=MIC of Compound b in combination/MIC of compound b alone
(§3) The sum of Fractional Inhibitory Concentration (FICs) index of: (FICa)+(FICb)=(FICs)

Clinical Isolates = experiment: as above; type: cell-based, Staphylococcus aureus
Experimental: as §1, §2, §3

[1] = antibiotic in combination with Compound 1

With NCC[C@H](O)C(=O)N[C@@H]1C[C@H](N)[C@@H](O[C@H]2O[C@H](CN)[C@@H](O)[C@H](O)[C@H]2O)[C@H](O)[C@H]1O[C@H]1O[C@H](CO)[C@@H](O)[C@H](N)[C@H]1O [Amikacin] the “MIC (a)” value (EMRSA-17) was 256 µg/mL, the “MIC (a)” value (EMRSA-17; listed as amikacin) was 2084 µg/mL and the “MIC (a + b)” value (Clinical Isolates; [1]) was 8 µg/mL. The “MIC (a + b)” value (Clinical Isolates; antibiotic in combination with Compound 1, listed as amikacin) was 5 µg/mL.
For CC[C@H]1OC(=O)[C@H](C)[C@@H](O[C@H]2C[C@@](C)(OC)[C@@H](O)[C@H](C)O2)[C@H](C)[C@@H](O[C@@H]2O[C@H](C)C[C@H](N(C)C)[C@H]2O)[C@](C)(O)C[C@@H](C)C(=O)[C@H](C)[C@@H](O)[C@]1(C)O [Erythromycin], the “MIC (a)” value (EMRSA-17) was 2048 µg/mL.
In the case of Cc1cc(NS(=O)(=O)c2ccc(N)cc2)no1 [Sulfamethoxazole], the “MIC (a)” value (EMRSA-17) is reported as 2048 µg/mL, the “MIC (a + b)” value (Clinical Isolates; [1]) is reported as 8 µg/mL and the “MIC (a + b)” value (Clinical Isolates; antibiotic in combination with Compound 1, listed as sulfamethoxazole) is reported as 4 µg/mL.
For [H]/N=C(/N)N[C@H]1[C@H](O)[C@@H](O)[C@H](O[C@@H]2O[C@@H](C)[C@](O)(C=O)[C@H]2O[C@@H]2O[C@@H](CO)[C@H](O)[C@@H](O)[C@@H]2NC)[C@@H](N/C(N)=N\[H])[C@@H]1O [Streptomycin], the “MIC (a)” value (EMRSA-17) was 2048 µg/mL, the “MIC (a + b)” value (Clinical Isolates; [1]) was 4 µg/mL and the “MIC (a + b)” value (Clinical Isolates; antibiotic in combination with Compound 1, listed as streptomycin) was 8 µg/mL.
With Cc1onc(-c2ccccc2)c1C(=O)N[C@@H]1C(=O)N2[C@@H]1SC(C)(C)[C@@H]2C(=O)O [Oxacillin] the “MIC (a)” value (EMRSA-17) was 2084 µg/mL, the “MIC (a + b)” value (Clinical Isolates; [1]) was 5 µg/mL and the “MIC (a + b)” value (Clinical Isolates; antibiotic in combination with Compound 1, listed as oxacillin) was 16 µg/mL.
